Assay results from publication PMC4356511.
These are yes or no findings as the source states them, for the method shown. In cells and extracts the contact can be indirect. Some results given as binding are weak or reduced against the parent protein; the word gives no strength. Sequences can lack the tags named with a protein.

Chains of the proteins cited; added tags and fusions are not shown.
UniProt P47806: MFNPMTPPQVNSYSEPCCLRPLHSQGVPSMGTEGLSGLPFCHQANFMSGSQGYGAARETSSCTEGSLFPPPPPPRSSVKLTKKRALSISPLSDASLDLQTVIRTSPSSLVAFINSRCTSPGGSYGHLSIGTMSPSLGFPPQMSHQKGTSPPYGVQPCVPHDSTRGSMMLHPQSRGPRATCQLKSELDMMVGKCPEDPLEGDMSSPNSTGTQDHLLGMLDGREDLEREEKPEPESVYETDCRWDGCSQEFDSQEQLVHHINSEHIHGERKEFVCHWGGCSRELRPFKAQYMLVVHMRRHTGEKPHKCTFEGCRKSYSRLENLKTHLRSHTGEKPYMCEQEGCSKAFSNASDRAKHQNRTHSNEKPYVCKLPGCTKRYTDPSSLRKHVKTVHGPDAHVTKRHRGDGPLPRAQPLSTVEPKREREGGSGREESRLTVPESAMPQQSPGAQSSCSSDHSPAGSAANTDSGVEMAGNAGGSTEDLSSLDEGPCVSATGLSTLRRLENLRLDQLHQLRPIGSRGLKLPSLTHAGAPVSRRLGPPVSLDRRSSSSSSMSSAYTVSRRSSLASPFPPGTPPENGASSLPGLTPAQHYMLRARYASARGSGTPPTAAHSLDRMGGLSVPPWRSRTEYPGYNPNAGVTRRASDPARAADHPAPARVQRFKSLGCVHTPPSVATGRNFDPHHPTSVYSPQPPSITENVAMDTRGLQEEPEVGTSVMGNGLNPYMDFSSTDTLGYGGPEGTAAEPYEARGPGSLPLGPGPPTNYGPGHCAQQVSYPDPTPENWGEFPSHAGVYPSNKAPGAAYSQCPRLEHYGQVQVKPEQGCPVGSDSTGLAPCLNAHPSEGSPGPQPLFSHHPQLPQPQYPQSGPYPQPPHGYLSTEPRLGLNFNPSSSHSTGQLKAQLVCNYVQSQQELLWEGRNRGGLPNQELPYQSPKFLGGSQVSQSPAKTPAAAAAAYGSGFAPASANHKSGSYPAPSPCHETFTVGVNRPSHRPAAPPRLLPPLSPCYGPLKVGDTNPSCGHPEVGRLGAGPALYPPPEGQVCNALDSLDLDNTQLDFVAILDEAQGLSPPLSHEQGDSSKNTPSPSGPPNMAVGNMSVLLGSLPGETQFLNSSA
UniProt Q0VGT2: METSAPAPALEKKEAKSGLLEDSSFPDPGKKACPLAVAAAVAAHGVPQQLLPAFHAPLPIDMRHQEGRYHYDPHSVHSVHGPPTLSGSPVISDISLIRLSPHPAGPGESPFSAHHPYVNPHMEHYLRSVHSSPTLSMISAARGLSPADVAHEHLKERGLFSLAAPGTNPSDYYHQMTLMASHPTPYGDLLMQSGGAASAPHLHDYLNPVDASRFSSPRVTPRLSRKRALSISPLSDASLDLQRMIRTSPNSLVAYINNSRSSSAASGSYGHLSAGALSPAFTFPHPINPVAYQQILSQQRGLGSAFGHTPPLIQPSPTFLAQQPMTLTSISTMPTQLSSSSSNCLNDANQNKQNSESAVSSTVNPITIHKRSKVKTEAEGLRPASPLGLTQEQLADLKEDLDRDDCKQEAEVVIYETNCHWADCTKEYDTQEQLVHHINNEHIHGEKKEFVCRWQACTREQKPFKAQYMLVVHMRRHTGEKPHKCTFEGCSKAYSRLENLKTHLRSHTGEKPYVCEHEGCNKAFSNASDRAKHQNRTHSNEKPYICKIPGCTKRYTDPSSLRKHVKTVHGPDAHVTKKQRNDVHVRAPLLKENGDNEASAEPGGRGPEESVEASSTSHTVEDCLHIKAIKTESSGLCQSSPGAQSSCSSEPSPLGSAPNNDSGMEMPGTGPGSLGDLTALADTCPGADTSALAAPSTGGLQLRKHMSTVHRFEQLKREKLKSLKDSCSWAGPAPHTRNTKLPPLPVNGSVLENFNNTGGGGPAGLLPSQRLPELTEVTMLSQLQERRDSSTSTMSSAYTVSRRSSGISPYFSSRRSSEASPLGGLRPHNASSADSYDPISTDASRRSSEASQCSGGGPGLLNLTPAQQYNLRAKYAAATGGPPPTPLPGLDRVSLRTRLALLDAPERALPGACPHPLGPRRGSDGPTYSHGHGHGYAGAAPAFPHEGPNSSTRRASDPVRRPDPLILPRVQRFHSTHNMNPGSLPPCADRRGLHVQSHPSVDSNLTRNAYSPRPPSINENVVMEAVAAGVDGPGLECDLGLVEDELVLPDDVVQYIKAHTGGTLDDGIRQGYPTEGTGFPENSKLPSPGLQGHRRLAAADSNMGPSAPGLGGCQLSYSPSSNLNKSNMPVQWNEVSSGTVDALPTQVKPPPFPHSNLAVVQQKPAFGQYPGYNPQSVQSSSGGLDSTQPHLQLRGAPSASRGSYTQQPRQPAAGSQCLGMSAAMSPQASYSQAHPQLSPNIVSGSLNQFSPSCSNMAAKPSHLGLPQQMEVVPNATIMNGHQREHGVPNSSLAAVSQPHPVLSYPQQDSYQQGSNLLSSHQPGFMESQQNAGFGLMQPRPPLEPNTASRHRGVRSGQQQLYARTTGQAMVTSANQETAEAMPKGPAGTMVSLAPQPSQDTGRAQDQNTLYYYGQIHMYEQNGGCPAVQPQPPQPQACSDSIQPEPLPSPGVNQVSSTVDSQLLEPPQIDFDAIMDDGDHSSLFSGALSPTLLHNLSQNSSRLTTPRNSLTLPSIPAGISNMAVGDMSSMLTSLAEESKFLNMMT
UniProt Q61602: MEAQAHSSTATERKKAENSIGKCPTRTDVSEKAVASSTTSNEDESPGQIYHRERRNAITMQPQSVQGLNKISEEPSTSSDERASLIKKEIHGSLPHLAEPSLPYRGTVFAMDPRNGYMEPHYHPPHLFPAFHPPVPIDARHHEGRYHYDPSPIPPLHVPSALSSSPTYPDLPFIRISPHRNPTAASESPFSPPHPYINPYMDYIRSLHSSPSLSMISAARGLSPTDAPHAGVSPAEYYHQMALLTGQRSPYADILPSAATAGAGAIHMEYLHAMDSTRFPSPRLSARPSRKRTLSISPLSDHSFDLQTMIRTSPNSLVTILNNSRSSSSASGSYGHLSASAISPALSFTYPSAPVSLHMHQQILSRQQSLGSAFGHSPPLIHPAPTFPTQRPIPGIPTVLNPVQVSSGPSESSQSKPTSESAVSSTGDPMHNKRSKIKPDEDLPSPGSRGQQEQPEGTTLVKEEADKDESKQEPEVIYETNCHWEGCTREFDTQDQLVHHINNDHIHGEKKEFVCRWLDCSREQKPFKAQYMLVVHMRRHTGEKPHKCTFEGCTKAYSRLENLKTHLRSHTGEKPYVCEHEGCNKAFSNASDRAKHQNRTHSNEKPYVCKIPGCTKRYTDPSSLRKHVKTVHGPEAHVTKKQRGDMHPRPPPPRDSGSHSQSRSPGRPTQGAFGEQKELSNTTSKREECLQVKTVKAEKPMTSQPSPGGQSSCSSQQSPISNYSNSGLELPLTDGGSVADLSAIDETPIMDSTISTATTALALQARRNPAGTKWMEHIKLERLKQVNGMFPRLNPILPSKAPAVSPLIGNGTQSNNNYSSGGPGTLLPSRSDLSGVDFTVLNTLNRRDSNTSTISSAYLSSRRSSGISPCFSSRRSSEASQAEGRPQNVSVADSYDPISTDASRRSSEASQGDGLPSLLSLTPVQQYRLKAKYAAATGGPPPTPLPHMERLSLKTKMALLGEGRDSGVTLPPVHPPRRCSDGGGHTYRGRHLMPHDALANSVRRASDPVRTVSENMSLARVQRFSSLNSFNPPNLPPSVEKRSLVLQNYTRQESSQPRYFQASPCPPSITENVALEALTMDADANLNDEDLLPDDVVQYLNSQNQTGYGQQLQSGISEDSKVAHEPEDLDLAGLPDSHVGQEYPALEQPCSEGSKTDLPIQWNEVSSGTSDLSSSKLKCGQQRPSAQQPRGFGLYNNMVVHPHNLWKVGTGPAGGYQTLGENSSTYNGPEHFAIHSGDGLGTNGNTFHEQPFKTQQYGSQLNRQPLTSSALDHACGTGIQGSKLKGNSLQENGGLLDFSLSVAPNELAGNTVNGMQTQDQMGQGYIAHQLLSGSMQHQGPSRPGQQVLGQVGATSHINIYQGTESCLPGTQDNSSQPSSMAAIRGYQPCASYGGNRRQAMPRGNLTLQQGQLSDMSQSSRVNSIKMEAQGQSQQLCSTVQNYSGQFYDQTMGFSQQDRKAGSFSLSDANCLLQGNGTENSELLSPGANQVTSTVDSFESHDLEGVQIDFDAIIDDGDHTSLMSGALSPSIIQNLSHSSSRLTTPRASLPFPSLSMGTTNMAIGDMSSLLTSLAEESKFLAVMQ

What was measured:
Assay in all cases: co-IP; 293T cells 24 h after transfection; lysis buffer 0.1 mM Tris-HCl pH 7.5, 0.3 M NaCl, 2% Nonidet P-40, 2 mM EDTA; cleared lysates with anti-HA or anti-FLAG M2 magnetic beads 2 h at 4°C; washed three times; western blotting
Flag–Gli1 = Flag–Gli1 (UniProt P47806)
Flag–Gli2 = Flag–Gli2 (UniProt Q0VGT2)
[1] = target: Flag–Gli3 (Gli3^FL) (mouse) (UniProt Q61602)

Measured: binding

B1: HA–Sufu^T396I (protein, UniProt Q9Z0P7 1-484)
chain: MAELRPSVAPGPAAPPASGPSAPPAFASLFPPGLHAIYGECRRLYPDQPNPLQVTAIVKYWLGGPDPLDYVSMYRNMGSPSANIPEHWHYISFGLSDLYGDNRVHEFTGTDGPSGFGFELTFRLKRETGESAPPTWPAELMQGLARYVFQSENTFCSGDHVSWHSPLDNSESRIQHMLLTEDPQMQPVRTPFGVVTFLQIVGVCTEELHSAQQWNGQGILELLRTVPIAGGPWLITDMRRGETIFEIDPHLQERVDKGIETDGSNLSGVSAKCAWDDLSRPPEDEEDSRSICLGTQPRRLSGKDTEQIRETLRRGLEINSKPVLPPINSQRQNGLTHDRAPSRKDSLGSDSSTAIIPHELIRTRQLESVHLKFNQESGALIPLCLRGRLLHGRHFIYKSITGDMAITFVSTGVEGAFATEEHPYAAHGPWLQILLTEEFVEKMLEDLEDLTSPEEFKLPKEYSWPEKKLKVSILPDVVFDSPLH
binds: all assays above

B2: HA–Sufu (wild-type Sufu) (protein, UniProt Q9Z0P7 1-484)
chain: MAELRPSVAPGPAAPPASGPSAPPAFASLFPPGLHAIYGECRRLYPDQPNPLQVTAIVKYWLGGPDPLDYVSMYRNMGSPSANIPEHWHYISFGLSDLYGDNRVHEFTGTDGPSGFGFELTFRLKRETGESAPPTWPAELMQGLARYVFQSENTFCSGDHVSWHSPLDNSESRIQHMLLTEDPQMQPVRTPFGVVTFLQIVGVCTEELHSAQQWNGQGILELLRTVPIAGGPWLITDMRRGETIFEIDPHLQERVDKGIETDGSNLSGVSAKCAWDDLSRPPEDEEDSRSICLGTQPRRLSGKDTEQIRETLRRGLEINSKPVLPPINSQRQNGLTHDRAPSRKDSLGSDSSTAIIPHELIRTRQLESVHLKFNQESGALIPLCLRGRLLHGRHFTYKSITGDMAITFVSTGVEGAFATEEHPYAAHGPWLQILLTEEFVEKMLEDLEDLTSPEEFKLPKEYSWPEKKLKVSILPDVVFDSPLH
binds: all assays above
